Assay results taken from PubChem BioAssay AID493014 (National Center for Advancing Translational Sciences (NCATS), 2011).
The other results are listed elsewhere or left out. The main result of the screen is listed elsewhere. These columns were measured beside it and carry no call. The list favours compounds with an active or inconclusive main result. The note in brackets gives the kind of curve behind each potency; many fits are weak.

Assay: qHTS Assay to Find Inhibitors of Chronic Active B-Cell Receptor Signaling
Details: ABC-DLBCL IkBa-CBG/CBR reporter, luminescence ratio (green luciferase fused to IkBa over red control in TMD8 lymphoma cells), 4 h
Procedure, shortened: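 Concentration-response series (up to 46 uM) were applied to TMD8 dual-reporter cells for 4 h at 37C with doxycycline. Green/red ratio, after filter-overlap correction, defined %Activity; red signal alone was normalised to basal cells and zero luminescence.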

[1] = measured here: CBR red luminescence, cell number
[2] = measured here: IkBa-CBG green luminescence

SMILES	AC50 [1]	AC50 [2]
COc1cc(OC)nc(Oc2ccc(N)c(C)c2)n1	35.5 µM [rising, single point]	–
CCOC(=O)c1sc(NC(=O)c2ccc(S(=O)(=O)N(C)C)cc2)nc1C	0.259 µM [falling, full curve, poor fit]	–
Cc1cccc(NC(=O)CNC(=O)COC(=O)c2ccco2)c1C	6.51 µM [rising, single point]	–
CCC1CCCCN1S(=O)(=O)c1ccc(NC(=O)c2cccs2)cc1 (stereo unspecified)	10.3 µM [falling, partial curve, poor fit]	–
Oc1c(CN2CCN(c3ccc(F)cc3)CC2)cc(Cl)c2cccnc12	29.1 µM [rising, single point]	32.6 µM [falling, partial curve, poor fit]
O=C(Nc1ccc2c(c1)N(Cc1ccccc1)C(=O)c1ccccc1S2)NC1CC1	25.9 µM [falling, partial curve, poor fit]	–
COc1cc(/C=N/Nc2snc(SC)c2C#N)ccc1O	1.58 µM [rising, partial curve]	–
COc1ccc(C(=O)NC(=S)N2CCN(c3ccccc3OC)CC2)cc1	10 µM [rising, partial curve, poor fit]	–
Cc1csc(NC(=O)c2ccc(S(C)(=O)=O)cc2)n1	0.501 µM [falling, partial curve, poor fit]	–
O=c1[nH]c(NCCCO)nc2c1C1(CCCC1)Cc1ccccc1-2	20.6 µM [falling, single point]	–
COc1ccc(/C=C2\SC(=S)N(CCC(=O)N(CCO)Cc3ccccc3)C2=O)cc1OC	7.94 µM [falling, partial curve]	–
O=C(CN1CCCc2ccccc21)NCc1ccccc1Cl	5.8 µM [falling, partial curve]	–
COc1cc(/C=C2/CCC/C(=C\c3cc(O)c(OC)c(Cl)c3)C2=O)cc(Cl)c1O	3.16 µM [falling, partial curve, poor fit]	–
CN1CCCC(OC(=O)c2ccc3c(c2)OCCO3)C1 (stereo unspecified)	0.58 µM [falling, full curve, poor fit]	–
COc1cc(/C=C2\SC(=S)N(CCC(=O)Nc3cccc(O)c3)C2=O)cc(OC)c1OC	35.5 µM [falling, single point]	–
Cn1c(N2CCN(C(=O)Nc3ccc(C(F)(F)F)cc3)CC2)nc2ccccc21	20.6 µM [rising, partial curve, poor fit]	–
Cc1[nH][nH]c(=O)c1C(c1ccc(-c2ccc(C(=O)O)cc2)o1)c1c(C)[nH][nH]c1=O	10 µM [falling, partial curve]	–
COc1cc2ncnc(NCc3ccccc3C)c2cc1OC	18.4 µM [falling, single point]	–
COc1ccc(NC(=O)CCn2cccc2)cc1	0.794 µM [rising, partial curve, poor fit]	–
Cc1c(C(=O)OCC(=O)NC(C)c2ccccc2)oc2ccccc12 (stereo unspecified)	7.94 µM [falling, partial curve, poor fit]	–

SMILES	AC50 [1]	AC50 [2]
CCn1cc(C(=O)NCc2ccco2)c(=O)c2cc(S(=O)(=O)N3CCc4ccccc4C3)ccc21	35.5 µM [falling, single point]	17.8 µM [rising, partial curve, poor fit]
O=C(NCc1ccc(Cl)cc1)C1CCN(S(=O)(=O)c2cc([N+](=O)[O-])ccc2Cl)CC1	18.4 µM [falling, single point]	–
O=C1C2ON(c3ccc(Br)cc3)C(c3cccnc3)C2C(=O)N1C1CCCCC1 (stereo unspecified)	23.1 µM [rising, single point]	–
CCCCSc1nc2sc3c(c2c(=O)n1-c1ccc(OC)cc1)CCN(C)C3	14.1 µM [rising, single point]	–
C/C(CCc1ccc2c(c1)OCO2)=N\NC(=O)c1ccccc1Cl	23.1 µM [falling, partial curve]	–
NC(=O)c1ccc(NC(=O)c2ccc3c(c2)OCO3)cc1	0.82 µM [falling, full curve]	–
O=C(c1cnn(C(=O)c2ccccc2F)c1)c1ccccc1O	10.3 µM [falling, partial curve, poor fit]	–
Cc1ccc(C(CNS(=O)(=O)c2ccc(Br)cc2)N2CCN(C)CC2)cc1 (stereo unspecified)	10.3 µM [falling, single point]	–
Oc1ccccc1-c1nc(NCCN2CCOCC2)c2ccccc2n1	20 µM [falling, single point]	12.6 µM [rising, partial curve, poor fit]
CS(=O)(=O)N(CC(=O)Nc1ccc(S(=O)(=O)N2CCCC2)cc1)c1cccc(F)c1	0.112 µM [falling, full curve, poor fit]	–
CCCC1(c2ccccc2)NC(=O)N(CC(=O)Nc2sc(-c3ccccc3)cc2C(=O)OCC)C1=O (stereo unspecified)	18.4 µM [rising, partial curve, poor fit]	–
COc1ccc2[nH]c3c(c2c1)CCN1C(=O)C(CC(=O)NCCC2=CCCCC2)C[C@H](C(=O)N(C(C)C)C(C)C)[C@@]31C (stereo partly specified)	18.4 µM [falling, partial curve]	–
COC(=O)c1c(N)sc2c1CCN(c1ncc(C(F)(F)F)cc1Cl)C2	16.4 µM [rising, partial curve]	–
CN1CCN(c2ccc(Cl)cc2NC(=O)/C=C/c2cccc(F)c2)CC1	14.1 µM [falling, partial curve]	–
Oc1cccc(/C=N/Nc2ccc(Cl)nn2)c1O	10 µM [falling, partial curve]	0.398 µM [falling, partial curve, poor fit]
O=C(CSc1ccc(-c2ccco2)nn1)c1ccccc1	29.1 µM [falling, single point]	–
Cc1cc(N2CCCN(C)CC2)nc2cc(Cl)ccc12	20 µM [falling, single point]	–
CCn1c(C)nc2cc(C(=O)OC)ccc21	14.1 µM [rising, partial curve, poor fit]	–
CCOC(=O)c1c(NC(=O)C(C)Sc2nnc(C)c(=O)[nH]2)sc2c1CCCC2 (stereo unspecified)	5.01 µM [falling, full curve]	–
O=C(Nc1ccc(S(=O)(=O)NCCc2ccccc2)cc1)c1ccc(Br)o1	29.1 µM [rising, single point]	–

SMILES	AC50 [1]	AC50 [2]
Cc1ccc2[nH]nc(C(=O)N3CCCC(C(=O)c4ccc(Cl)cc4)C3)c2c1 (stereo unspecified)	35.5 µM [falling, single point]	–
O=C(Nc1nc(=O)c2ccccc2s1)c1ccc(F)cc1	2.59 µM [falling, full curve]	16.4 µM [rising, single point]
COc1ccccc1NC(=O)CC1COc2ccccc2O1 (stereo unspecified)	10 µM [falling, partial curve]	–
COc1ccc(O)c(/C=c2/sc3nc4cc(C)c(C)cc4n3c2=O)c1	35.5 µM [falling, partial curve, poor fit]	–
CCOC(=O)Cc1csc(NC(NC(=O)CC)(C(F)(F)F)C(F)(F)F)n1	15.8 µM [falling, single point]	–
O=C1c2sc3nc4ccccc4n3c2C(=O)N1c1ccccc1Cl	4.11 µM [falling, partial curve]	–
CCOc1cc(/C=C(\CC(=O)O)c2nc3ccccc3s2)ccc1OC	3.16 µM [rising, partial curve, poor fit]	–
CSCCC(NC(N)=O)C(=O)NCc1ccccc1Cl (stereo unspecified)	29.1 µM [falling, single point]	–
Cc1ccc(C)c(CN2CCC(CNC(=O)Nc3ccc(Cl)cc3)CC2)c1	7.94 µM [rising, partial curve, poor fit]	–
Cc1cccc(-n2cc(-c3ccccc3)c3c(N4CCOCC4)ncnc32)c1	1.12 µM [rising, full curve, poor fit]	–
CSc1nnc(-c2ccc(S(=O)(=O)N3CCOCC3)cc2)n1CC1CCCO1 (stereo unspecified)	23.1 µM [rising, single point]	32.6 µM [falling, partial curve, poor fit]
COc1ccccc1/C=C/C=N/NC(=O)c1cccs1	0.447 µM [falling, full curve, poor fit]	–
c1ccc(CCn2nnnc2CN2CCN(C3CCCC3)CC2)cc1	6.51 µM [falling, single point]	–
COc1ccc(NC(=O)CCCSc2nc(-c3ccco3)cc(C(F)(F)F)n2)cc1OC	0.517 µM [rising, full curve, poor fit]	–
Cn1c(=O)c2c(nc(SCCNS(=O)(=O)c3ccccc3)n2C)n(C)c1=O	7.94 µM [falling, partial curve, poor fit]	–
CSc1ccc(/C=C/C(=O)c2ccc(NC(C)=O)cc2)cc1	20.6 µM [falling, single point]	–
O=C(O)CC1S/C(=N/N=C/c2ccc(-c3ccccc3[N+](=O)[O-])o2)NC1=O (stereo unspecified)	23.1 µM [falling, partial curve, poor fit]	–
COc1ccccc1/C=N/NC(=O)c1ccc(Br)cc1	15.8 µM [falling, partial curve, poor fit]	–
COc1ccc(CNC(=O)C2CCCN(S(=O)(=O)c3cccc4nsnc34)C2)cc1 (stereo unspecified)	15.8 µM [falling, partial curve, poor fit]	–
C[C@H](CO)N1C[C@H](C)[C@@H](CN(C)S(C)(=O)=O)Oc2ccc(NC(=O)CCN3CCOCC3)cc2C1=O	25.9 µM [rising, partial curve, poor fit]	–

Whole records as entered above.
Oc1cccc(/C=N/Nc2ccc(Cl)nn2)c1O reads AC50 [1]: 10 µM [falling, partial curve]; AC50 [2]: 0.398 µM [falling, partial curve, poor fit]
COc1ccc(NC(=O)CCn2cccc2)cc1 reads AC50 [1]: 0.794 µM [rising, partial curve, poor fit]
CCOC(=O)c1c(NC(=O)C(C)Sc2nnc(C)c(=O)[nH]2)sc2c1CCCC2 (stereo unspecified) reads AC50 [1]: 5.01 µM [falling, full curve]
